# Data taken from PubChem BioAssay AID445 (National Center for Advancing Translational Sciences (NCATS), 2006).
# The other results are listed elsewhere or left out. Further columns of the screen follow, without active or inactive calls. Compounds called inactive in the main read-out are mostly missing here. Potencies come from curve fits of mixed quality, noted in brackets.
# Test: IkB Signaling
# Conditions: ABC-DLBCL IkBa-CBG/CBR dual luciferase ratio (green luciferase fused to IkBa over red control in OCI-Ly3 lymphoma cells), 4 h
# How it was run: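 In this assay, an IκBα–CBG68 fusion accumulates when IKK-driven degradation is blocked; native CBR normalizes for cell number. OCI-Ly3 cells were treated 4 h with compound and doxycycline, then green and red light read after Chroma-Glo addition.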
# [1] = measured here: control luc red channel unless noted
# [2] = measured here: IkB-luc green channel
# [3] = measured here: control luc red channel
structure (smiles),measurement,setting,value
CC(c1ccco1)N(C(=O)COc1ccc(Cl)cc1Cl)c1ccccn1 (centres undefined),AC50,[1],"25.1 µM [falling, single point]"
COc1ccc(CCN2CC(C#N)=C3c4cc(OC)c(OC)cc4CCN3C2)cc1OC,AC50,[1],"12.6 µM [falling, partial curve]"
COc1ccccc1N1CCN(C(=O)c2sc3nc(-c4ccc(F)cc4)cn3c2C)CC1,AC50,[2],"15.8 µM [falling, partial curve]"
same,AC50,[3],"3.98 µM [falling, full curve]"
O=S(=O)(c1ccc(F)cc1)N(CCO)CC(O)Cn1c2ccccc2c2ccccc21 (centres undefined),AC50,[1],"20 µM [falling, partial curve]"
Cc1cccn2cc(-c3cccc(NC(=O)C(C)C)c3)nc12,AC50,[1],"10 µM [falling, partial curve]"
Cc1ccc(-c2cn3cccnc3n2)cc1NC(=O)Nc1ccc(F)cc1,AC50,[1],"6.31 µM [rising, partial curve]"
COc1ccc2c(c1)c(=O)c(S(=O)(=O)c1ccc(F)cc1)cn2Cc1ccccc1Cl,AC50,[1],"6.31 µM [falling, single point]"
COc1cccc2c(C)cc3nnc(SCC(=O)Nc4ccc(C)cc4)n3c12,AC50,[1],"20 µM [falling, partial curve]"
O=C(Cn1ncc2c1-c1ccccc1OC2)N1CCN(c2ccccc2)CC1,AC50,[1],"39.8 µM [falling, single point]"
O=C(c1ccc2c(c1)OCO2)c1cn(Cc2ccc(Cl)cc2)c2ccc(F)cc2c1=O,AC50,[1],"15.8 µM [falling, partial curve]"
CCCCOc1ccc(C(=O)N2CCCCC2CCN2CCOCC2)cc1 (centres undefined),AC50,[1],"39.8 µM [falling, single point]"
CC1CCC(NC(=O)c2ccc(CS(=O)(=O)c3ccc(Cl)cc3)o2)CC1 (centres undefined),AC50,[1],"25.1 µM [falling, single point]"
CCN(CC)S(=O)(=O)c1ccc(C(=O)NCCSc2c(-c3ccc(F)cc3)[nH]c3ccccc23)cc1,AC50,[1],"5.01 µM [falling, full curve]"
O=C(Nc1c(C(=O)N2CCN(c3ccccc3F)CC2)oc2ccccc12)c1cccc(F)c1,AC50,[1],"0.631 µM [falling, full curve, poor fit]"
CCC1CCCCN1C(=O)Nc1cccc(NC(=O)N2CCCCC2CC)c1 (centres undefined),AC50,[1],"20 µM [falling, partial curve]"
COc1ccc(CCNC(=O)C(=O)NCC(c2ccco2)S(=O)(=O)c2ccc(C)cc2)cc1 (centres undefined),AC50,[1],"0.0398 µM [rising, full curve, poor fit]"
CCOc1cc(/C=C(/C#N)c2ccc(F)cc2)ccc1OCc1ccc(C(=O)O)o1,AC50,[1],"25.1 µM [falling, partial curve]"
O=C(CCn1c(=O)c2cccn2c2cccnc21)N1CCN(c2cccc(C(F)(F)F)c2)CC1,AC50,[1],"31.6 µM [falling, single point]"
O=C(Cn1c(=O)oc2cc(S(=O)(=O)NCc3ccccc3)ccc21)Nc1cccc(F)c1,AC50,[1],"15.8 µM [falling, single point]"
COc1cc(C)nc(N(Cc2ccccc2)S(=O)(=O)c2ccccc2)n1,AC50,[1],"20 µM [falling, partial curve, poor fit]"
COc1cc(OC)cc(C(=O)Nc2ccc(-c3nc4ccccc4s3)cc2C)c1,AC50,[1],"1 µM [rising, full curve]"
Cc1cc(C)n(-c2nc(C)c(C)c(=O)n2CC(=O)Nc2ccc([N+](=O)[O-])cc2)n1,AC50,[1],"6.31 µM [rising, single point]"
CC(=O)N1CCc2cc(S(=O)(=O)NCCC(=O)N3CCc4ccccc4C3)ccc21,AC50,[1],"25.1 µM [falling, partial curve]"
COCC(=O)n1nc(-c2ccco2)nc1NCc1ccccc1Cl,AC50,[1],"15.8 µM [falling, partial curve]"
COc1ccccc1CNC(=O)CCc1c(C)c2cc3c(C)c(C)oc3cc2oc1=O,AC50,[1],"39.8 µM [falling, single point]"
COc1ccc(CCNC(=O)c2ccc3c(c2)N(Cc2ccc(F)cc2)C(=O)c2ccccc2S3(=O)=O)cc1OC,AC50,[1],"6.31 µM [rising, partial curve, poor fit]"
Cc1c(C(=O)Nc2cccc(C(F)(F)F)c2)sc2nc[nH]c(=O)c12,AC50,[1],"25.1 µM [falling, single point]"
Cc1ccc(-n2ncc3c(NCCCN4CCOCC4)ncnc32)cc1C,AC50,[1],"39.8 µM [falling, single point]"
COCc1nnc(NC(=O)c2cc(OC)c(OC)c(OC)c2)s1,AC50,[1],"39.8 µM [falling, single point]"
COc1ccc(C(=O)/C=C/c2cn(CC(O)CN3CCc4ccccc43)c3ccccc23)cc1OC (centres undefined),AC50,[1],"10 µM [falling, partial curve]"
Cc1ccccc1C(=O)N1CCN(c2ccc(NC(=O)c3ccco3)cc2Cl)CC1,AC50,[2],"15.8 µM [falling, partial curve]"
same,AC50,[3],"20 µM [falling, partial curve]"
Cc1ccc(-n2c(C)cc(C(=O)OCC(=O)N(CC(C)C)C3CCS(=O)(=O)C3)c2C)cc1 (centres undefined),AC50,[1],"7.94 µM [falling, partial curve]"
COCCn1c(=O)cnc2cnc(Nc3cccc(OC)c3)nc21,AC50,[2],"3.16 µM [falling, partial curve]"
same,AC50,[3],"5.01 µM [falling, partial curve]"
CCc1ccccc1NS(=O)(=O)c1ccc2[nH]cc(C(=O)N(CC(C)C)CC(C)C)c(=O)c2c1,AC50,[1],"20 µM [falling, partial curve]"
O=C(COC(=O)c1cncc(Br)c1)NCc1ccco1,AC50,[1],"25.1 µM [rising, single point] [measured here: IkB-luc green channel]"
COc1ccc(OC)c(C(=O)CC2(O)C(=O)N(Cc3ccccc3C)c3ccccc32)c1 (centres undefined),AC50,[1],"39.8 µM [falling, single point]"
CCOc1ccccc1CNC(=O)CCc1c(C)nn(-c2ccc(N3CCCC3)nn2)c1C,AC50,[1],"10 µM [falling, single point]"
Cc1ccc(S(=O)(=O)C2(C(=O)Nc3ccc(Cl)c(C(F)(F)F)c3)CC2)cc1,AC50,[1],"10 µM [falling, partial curve]"
Cc1ccc(/C=C(\C#N)c2nc(-c3ccc(-c4ccccc4)cc3)cs2)cc1,AC50,[1],"0.631 µM [falling, full curve]"
COC(=O)c1ccc(Cl)cc1NC(=O)NCCc1c(C)nn(C)c1C,AC50,[1],"10 µM [falling, partial curve]"
COc1ccccc1CNC(=O)Cn1c(=O)nc(-c2ccccc2F)c2cc(Cl)ccc21,AC50,[1],"25.1 µM [falling, partial curve]"
Cc1ccc(-n2c(=O)c3cccnc3n2CC(=O)Nc2cc(C)cc(C)c2)cc1,AC50,[1],"20 µM [falling, single point]"
Clc1ccccc1-c1nnc2sc(-c3ccc4c(c3)OCO4)nn12,AC50,[1],"10 µM [falling, partial curve]"
COc1ccc(-n2ccnc2SCC(=O)Nc2ccc3c(c2)OCO3)cc1,AC50,[1],"0.0794 µM [falling, partial curve, poor fit]"
CCCC(c1nnnn1Cc1cccs1)N1CCN(c2nc3ccccc3s2)CC1 (centres undefined),AC50,[1],"12.6 µM [falling, partial curve]"
Cc1cccc(N2CCN(C(=O)CCn3c(=S)[nH]c4cc5c(cc4c3=O)OCO5)CC2C)c1 (centres undefined),AC50,[1],"5.01 µM [falling, full curve]"
Cc1ccc(Cl)cc1N1CCN(C(=O)C2CCC(CNS(=O)(=O)c3cccs3)CC2)CC1 (centres undefined),AC50,[1],"10 µM [falling, partial curve]"
CCOC(=O)c1c(C)[nH]c(C)c1S(=O)(=O)N1CCC(C(=O)Nc2cc(C)ccn2)CC1,AC50,[1],"25.1 µM [falling, partial curve]"
COc1cccc(C(=O)N2CCC(C(=O)Nc3cccc(Cl)c3)CC2)c1,AC50,[1],"12.6 µM [falling, partial curve]"
COc1cc(C(=O)Nc2ccc(NC(=O)c3ccc(C(C)(C)C)cc3)cc2)cc(OC)c1OC,AC50,[1],"7.94 µM [falling, full curve]"
NC(=O)c1ccccc1-c1nc(-c2ccccc2)no1,AC50,[1],"12.6 µM [falling, partial curve]"
COc1ccccc1C(=O)Nc1ccc2nc(SCCOc3ccccc3C)sc2c1,AC50,[1],"1 µM [falling, full curve, poor fit]"
N#C/C(=C\c1ccc(O)c(O)c1)C(=O)NCCCCc1ccccc1,AC50,[1],"31.6 µM [falling, partial curve]"
COc1ccc2c(c1)c(=O)oc1cc(OCC(=O)N3CCCC(C)C3)ccc12 (centres undefined),AC50,[1],"31.6 µM [falling, single point]"
COc1cccc(C(=O)Nc2nc3nc(-c4ccccc4)cc(=O)n3[nH]2)c1,AC50,[1],"20 µM [falling, single point]"
O=C(Cn1c(=O)nc(-c2ccccc2)c2ccccc21)NCCc1ccccc1,AC50,[1],"39.8 µM [falling, single point]"
Cc1cc(-c2ccccc2)n2nc(-c3ccccc3)cc2n1,AC50,[1],"20 µM [falling, partial curve]"
Cc1ccc2cc(C(c3nnnn3Cc3ccccc3)N3CCN(c4ccccc4)CC3)c(=O)[nH]c2c1 (centres undefined),AC50,[1],"10 µM [falling, partial curve]"
Cc1c(C(=O)O)oc2c1-c1nn(Cc3ccc(Cl)cc3)cc1CC2,AC50,[1],"10 µM [falling, partial curve]"
CCOc1ccc(C(c2c(O)cc(C)n(Cc3ccco3)c2=O)N2CCCCC2)cc1 (centres undefined),AC50,[1],"31.6 µM [falling, partial curve, poor fit]"
Cc1cc(Cl)ccc1OCC(=O)N1CCC(c2nc3ccccc3s2)CC1,AC50,[1],"39.8 µM [falling, single point]"

# Not a retest: entries from further up.
structure (smiles),measurement,setting,value
Cc1ccccc1C(=O)N1CCN(c2ccc(NC(=O)c3ccco3)cc2Cl)CC1,AC50,[3],"20 µM [falling, partial curve]"
Cc1ccc(-n2c(C)cc(C(=O)OCC(=O)N(CC(C)C)C3CCS(=O)(=O)C3)c2C)cc1 (centres undefined),AC50,[1],"7.94 µM [falling, partial curve]"
COCCn1c(=O)cnc2cnc(Nc3cccc(OC)c3)nc21,AC50,[2],"3.16 µM [falling, partial curve]"
same,AC50,[3],"5.01 µM [falling, partial curve]"
CCc1ccccc1NS(=O)(=O)c1ccc2[nH]cc(C(=O)N(CC(C)C)CC(C)C)c(=O)c2c1,AC50,[1],"20 µM [falling, partial curve]"
O=C(COC(=O)c1cncc(Br)c1)NCc1ccco1,AC50,[1],"25.1 µM [rising, single point] [measured here: IkB-luc green channel]"
COc1ccc(OC)c(C(=O)CC2(O)C(=O)N(Cc3ccccc3C)c3ccccc32)c1 (centres undefined),AC50,[1],"39.8 µM [falling, single point]"
CCOc1ccccc1CNC(=O)CCc1c(C)nn(-c2ccc(N3CCCC3)nn2)c1C,AC50,[1],"10 µM [falling, single point]"
Cc1ccc(S(=O)(=O)C2(C(=O)Nc3ccc(Cl)c(C(F)(F)F)c3)CC2)cc1,AC50,[1],"10 µM [falling, partial curve]"
Cc1ccc(/C=C(\C#N)c2nc(-c3ccc(-c4ccccc4)cc3)cs2)cc1,AC50,[1],"0.631 µM [falling, full curve]"
COC(=O)c1ccc(Cl)cc1NC(=O)NCCc1c(C)nn(C)c1C,AC50,[1],"10 µM [falling, partial curve]"
COc1ccccc1CNC(=O)Cn1c(=O)nc(-c2ccccc2F)c2cc(Cl)ccc21,AC50,[1],"25.1 µM [falling, partial curve]"
